Reference: the supplement of paper PMC10382679
Single values of this set are uncertain.

B1: Rpb7; numbered along this chain (parent)
chain: MFFIKDLSLNITLHPSFFGPRMKQYLKTKLLEEVEGSCTGKFGYILCVLDYDNIDIQRGRILPTDGSAEFNVKYRAVVFKPFKGEVVDGTVVSCSQHGFEVQVGPMKVFVTKHLMPQDLTFNAGSNPPSYQSSEDVITIKSRIRVKIEGCISQVSSIHAIGSIKEDYLGAI

Legend:
[1] = variants of: B1; assay: log2 fold change of mutant abundance, UV-irradiated vs unirradiated; higher = more UV resistant (enriched after UV); conditions: with Saccharomyces cerevisiae rad7Δ rad26Δ; UV dose (J/m2): 10; genetic background: rad7Δ rad26Δ rpb7Δ + plasmid RPB7 library; outgrowth: 10 cell divisions
Method: (§1)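 Error-prone PCR random mutant library of yeast RPB7 (codons 2-171) on a LEU2 plasmid, shuffled into rad7Δ rad26Δ S. cerevisiae (BJ5465 background) with genomic RPB7 deleted. Cells were irradiated with 10 J/m2 UV (254 nm) or left unirradiated and grown for 10 divisions. Plasmid RPB7 amplicons were Illumina-sequenced and per-codon amino-acid counts were compared UV vs no UV with NOISeq (3 repeats, ARSyNseq batch correction). Positive log2FC means enrichment after UV, i.e. UV resistance / derepressed TCR.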

[2] = variants of: B1; assay: NOISeq theta enrichment statistic, UV-irradiated vs unirradiated (dimensionless); higher = more UV resistant (enriched after UV); conditions: with Saccharomyces cerevisiae rad7Δ rad26Δ; UV dose (J/m2): 10; genetic background: rad7Δ rad26Δ rpb7Δ + plasmid RPB7 library; outgrowth: 10 cell divisions
Method: as §1

Variant | log2 fold change of mutant abundance [1] | NOISeq theta enrichment statistic [2]
F2C | -0.16 | -0.114
F2G | -0.314 | -0.213
F2I | 0.0797 | 0.164
F2L | 0.0371 | 0.101
F2S | -0.0677 | -0.0744
F2V | 0.128 | 0.169
F2Y | -0.00208 | -0.0057
F3C | -0.0258 | -0.0382
F3G | -0.166 | -0.127
F3H | -1.82 | -0.805
F3I | 0.0411 | 0.0982
F3L | 0.0494 | 0.123
F3R | 1.18 | 0.713
F3S | -0.00578 | -0.00987
F3V | -0.163 | -0.159
F3Y | -0.0409 | -0.111
I4F | 0.0748 | 0.0938
I4L | 0.342 | 0.385
I4M | 0.318 | 0.312
I4N | 0.197 | 0.293
I4R | -0.134 | -0.129
I4S | 0.353 | 0.319
I4T | 0.101 | 0.215
I4V | 0.103 | 0.154

Variant | log2 fold change of mutant abundance [1] | NOISeq theta enrichment statistic [2]
I4Y | -0.28 | -0.113
K5D | -0.245 | -0.0739
K5E | 0.0161 | 0.0309
K5G | 1.09 | 0.384
K5I | 0.0267 | 0.0814
K5L | -1.05 | -0.51
K5N | -0.0686 | -0.2
K5P | 0.566 | 0.536
K5Q | 0.0607 | 0.0757
K5R | 0.168 | 0.547
K5S | -0.774 | -0.317
K5T | 0.109 | 0.17
K5V | -0.668 | -0.209
K5Y | 0.242 | 0.134
D6A | 0.0895 | 0.104
D6E | 0.158 | 0.237
D6G | 0.116 | 0.243
D6H | -0.276 | -0.302
D6N | 0.116 | 0.182
D6R | -0.787 | -0.358
D6S | 0.256 | 0.248
D6T | -0.338 | -0.301
D6V | 0.103 | 0.27
D6Y | 0.0444 | 0.0803

Variant | log2 fold change of mutant abundance [1] | NOISeq theta enrichment statistic [2]
L7F | -0.145 | -0.261
L7H | 0.0965 | 0.232
L7I | 0.199 | 0.39
L7P | 0.0254 | 0.03
L7Q | -0.947 | -0.427
L7R | 0.0964 | 0.112
L7V | 0.0891 | 0.0916
S8A | 0.0858 | 0.0883
S8C | -0.362 | -0.236
S8E | -0.518 | -0.322
S8F | -0.75 | -0.367
S8L | 0.0426 | 0.0798
S8M | -0.599 | -0.352
S8P | 0.334 | 0.761
S8R | -0.462 | -0.365
S8T | -0.035 | -0.136
S8W | 0.147 | 0.146
L9A | -1.17 | -0.446
L9F | 0.13 | 0.304
L9H | -0.0402 | -0.22
L9I | 0.0636 | 0.122
L9M | -0.0513 | -0.0198
L9P | -0.0168 | -0.0191
L9Q | 0.711 | 0.308

Record cards (already shown).
L9P as listed: log2 fold change of mutant abundance [1] = -0.0168; NOISeq theta enrichment statistic [2] = -0.0191
L7I as listed: log2 fold change of mutant abundance [1] = 0.199; NOISeq theta enrichment statistic [2] = 0.39
L9F as listed: log2 fold change of mutant abundance [1] = 0.13; NOISeq theta enrichment statistic [2] = 0.304
S8R as listed: log2 fold change of mutant abundance [1] = -0.462; NOISeq theta enrichment statistic [2] = -0.365

More entries:

Variant | log2 fold change of mutant abundance [1] | NOISeq theta enrichment statistic [2]
L9R | -0.00302 | -0.00582
L9S | 0.557 | 0.425
L9V | 0.0634 | 0.0721
L9Y | -0.321 | -0.142
N10C | 0.425 | 0.255
N10D | -0.0154 | -0.0334
N10H | -0.0542 | -0.0806
N10I | -0.0799 | -0.391
N10K | -0.0298 | -0.0912
N10P | -0.0777 | -0.0558
N10R | -1.05 | -0.571
N10S | 0.0507 | 0.245
N10T | 0.00365 | 0.0065
N10Y | -0.111 | -0.287
I11F | 0.213 | 0.472
I11K | -0.195 | -0.0764
I11L | -0.211 | -0.282
I11M | -0.283 | -0.334
I11N | 0.27 | 0.445
I11R | 0.228 | 0.159
I11S | 0.237 | 0.248
I11T | -0.0522 | -0.14
I11V | 0.0246 | 0.0706
I11Y | -0.8 | -0.351

Variant | log2 fold change of mutant abundance [1] | NOISeq theta enrichment statistic [2]
T12A | -0.0929 | -0.202
T12I | 0.135 | 0.425
T12K | 0.185 | 0.13
T12N | 0.00967 | 0.0174
T12P | -0.124 | -0.171
T12R | -0.164 | -0.109
T12S | -0.0765 | -0.339
T12Y | -0.0824 | -0.0367
L13F | -0.243 | -0.479
L13H | -0.138 | -0.321
L13I | -0.258 | -0.704
L13P | 0.0947 | 0.178
L13R | -0.38 | -0.291
L13T | 0.121 | 0.0633
L13V | -0.713 | -0.675
H14D | -0.475 | -0.418
H14I | -0.622 | -0.547
H14K | 0.173 | 0.106
H14L | -0.132 | -0.269
H14N | -0.235 | -0.407
H14P | -0.00685 | -0.00982
H14Q | -0.165 | -0.594
H14R | -0.092 | -0.327
H14S | -0.431 | -0.266

Variant | log2 fold change of mutant abundance [1] | NOISeq theta enrichment statistic [2]
H14Y | -0.154 | -0.276
P15A | 0.135 | 0.157
P15L | -0.197 | -0.42
P15Q | -0.168 | -0.486
P15R | -0.467 | -0.599
P15S | 0.153 | 0.331
P15T | -0.139 | -0.227
S16A | -0.391 | -0.603
S16C | 0.0785 | 0.076
S16F | -0.124 | -0.212
S16P | -0.174 | -0.526
S16T | -0.000482 | -0.0022
S16V | -0.0772 | -0.0386
S16Y | -0.293 | -0.426
F17C | -0.199 | -0.378
F17H | -0.604 | -0.229
F17I | -0.588 | -1.15
F17L | -0.402 | -2.28
F17N | -0.24 | -0.0932
F17R | 0.435 | 0.284
F17S | -0.118 | -0.336
F17T | -1.12 | -0.459
F17V | -0.22 | -0.321
F17Y | 0.0336 | 0.164

Variant | log2 fold change of mutant abundance [1] | NOISeq theta enrichment statistic [2]
F18C | -0.159 | -0.226
F18H | -0.00718 | -0.00406
F18I | -0.0514 | -0.202
F18L | 0.146 | 0.858
F18N | -0.921 | -0.442
F18P | -0.244 | -0.113
F18S | -0.373 | -1.22
F18T | -0.483 | -0.357
F18V | -0.143 | -0.203
F18Y | 0.0482 | 0.209
G19A | -0.158 | -0.189
G19C | 0.153 | 0.487
G19D | 0.0542 | 0.111
G19F | -0.398 | -0.258
G19R | -0.185 | -0.191
G19S | 0.0394 | 0.111
G19V | 0.0075 | 0.0156
P20A | -0.00343 | -0.00334
P20H | 0.179 | 0.554
P20L | 0.133 | 0.315
P20Q | -0.5 | -0.229
P20R | 0.131 | 0.166
P20S | 0.098 | 0.267
P20T | 0.0935 | 0.181

Variant | log2 fold change of mutant abundance [1] | NOISeq theta enrichment statistic [2]
P20Y | 1.86 | 0.649
R21C | -0.217 | -0.15
R21E | -0.429 | -0.38
R21G | -0.365 | -0.407
R21H | -0.864 | -0.455
R21L | 0.186 | 0.535
R21P | -0.252 | -0.3
R21Q | 0.00867 | 0.0409
R21S | -0.0949 | -0.0548
R21W | -1.36 | -0.588
M22A | 0.143 | 0.0585
M22E | -1.13 | -0.607
M22F | 0.382 | 0.268
M22I | -0.157 | -0.477
M22K | -0.24 | -0.429
M22L | 0.0705 | 0.399
M22N | -0.347 | -0.181
M22R | -0.353 | -0.401
M22S | -0.339 | -0.235
M22T | -0.211 | -0.552
M22V | -0.0745 | -0.227
M22W | -0.424 | -0.337
K23D | 0.811 | 0.366
K23E | -0.0964 | -0.378

Variant | log2 fold change of mutant abundance [1] | NOISeq theta enrichment statistic [2]
K23I | -0.3 | -0.225
K23L | 1.28 | 0.552
K23M | -0.198 | -0.728
K23N | -0.0353 | -0.107
K23P | 0.127 | 0.105
K23Q | -0.073 | -0.125
K23R | 0.0372 | 0.168
K23S | -0.182 | -0.188
K23T | 0.00255 | 0.00435
K23V | 0.15 | 0.0893
K23W | 0.66 | 0.318
K23Y | -0.0124 | -0.00654
Q24A | 0.0329 | 0.0155
Q24E | 0.17 | 0.22
Q24H | 0.176 | 0.775
Q24I | -1.19 | -0.591
Q24K | 0.00703 | 0.0115
Q24L | 0.0357 | 0.132
Q24N | 0.11 | 0.106
Q24P | -0.168 | -0.194
Q24R | 0.0702 | 0.196
Q24Y | -0.00922 | -0.0073
Y25C | 0.193 | 0.526
Y25D | -0.0556 | -0.0548

Variant | log2 fold change of mutant abundance [1] | NOISeq theta enrichment statistic [2]
Y25F | 0.259 | 0.74
Y25H | 0.239 | 0.75
Y25I | -0.166 | -0.153
Y25K | 0.729 | 0.327
Y25L | 0.403 | 0.241
Y25N | 0.241 | 0.722
Y25S | 0.407 | 0.512
L26H | -1.15 | -0.498
L26I | -0.173 | -0.442
L26P | 0.0188 | 0.024
L26Q | -0.0127 | -0.0212
L26R | 0.272 | 0.293
L26S | -0.192 | -0.0824
L26V | -0.24 | -0.287
K27E | 0.0342 | 0.123
